# Test results published in PubChem BioAssay AID540256 (National Center for Advancing Translational Sciences (NCATS), 2011).
# “And” between values parts separate entries of the source, which are not always exact repeats. Identical values can stand only once. Out of some 300,000 compounds screened, about 3,700 (1.2%) were called active. Inconclusive means that the source gave no clear call. Such entries were picked first, then a sample of the others. Calls follow the shape of the full dose curve; tested in HEK293 cells. Where the call is inconclusive, the potency comes from a doubtful curve fit.
# Experiment: qHTS for Inhibitors of binding or entry into cells for Lassa Virus; also: nearly all actives have a fitted effect of over 50% in size
# Details: Lassa virus pseudotype entry inhibition, cell reporter; series mostly up to 37.9 µM
# Potency is read from the fitted curve at half-maximal effect.
row,Structure (SMILES),Potency
1,O=C(Cc1ccc(Cl)cc1Cl)NC1CCCCCC1,inactive
2,C=CCc1ccccc1OCC(O)CN1CCN(CCN2C(=O)c3cccc4cccc(c34)C2=O)CC1 (stereo not given),"inconclusive: 23.1 µM [inhibitor, single point]"
3,CC(=O)N1CCN(S(=O)(=O)c2cccc(C(=O)Nc3ccc(C)cn3)c2)CC1,inactive
4,O=C(COc1ccc(/C=N/NS(=O)(=O)c2ccccc2)cc1)Nc1ccccc1,inactive
5,COc1cccc(NC(=O)/C(C#N)=C\c2cn(Cc3ccc(Cl)cc3)c3ccccc23)c1,inactive
6,CCN(CC)CCn1c(SCC(=O)Nc2cccc(OC)c2)nc2c(sc3ccccc32)c1=O,"inconclusive: 10 µM [inhibitor, partial curve, poor fit]"
7,Cc1cccc(CSc2nc3ccncc3n2CC(=O)Nc2ccc(C)c(C)c2)c1,inactive
8,COc1ccc(C(Nc2cc(C)ccn2)c2ccc3ccc(C)nc3c2O)cc1 (stereo not given),"inconclusive: 35.5 µM [inhibitor, single point]"
9,CC(=O)Nc1ccccc1C(=O)C(=O)Nc1ccc(Cl)cc1,"inconclusive: 25.1 µM [activator, partial curve, poor fit]"
10,COc1ccc(CCNC(=O)c2ccc([N+](=O)[O-])cc2)cc1,inactive
11,Cc1ccc(C2C3=C(Nc4[nH]n(-c5ccccc5)c(=O)c42)c2ccccc2C3=O)cc1 (stereo not given),"inconclusive: 11.6 µM [activator, partial curve, poor fit]"
12,CCOc1cc(CNCc2ccccc2)ccc1OCc1ccc(Cl)cc1,"inconclusive: 12.6 µM [inhibitor, partial curve, poor fit]"
13,COc1ccc(Cc2nc3c4c(ncn3n2)Oc2ccc3ccccc3c2C4c2ccc(OC)c(OC)c2)cc1 (stereo not given),"inconclusive: 2.24 µM [inhibitor, full curve]"
14,Cc1cc(NCCc2ccccc2F)n2ncnc2n1,"inconclusive: 35.5 µM [inhibitor, single point]"
15,Cc1c(NS(=O)(=O)c2ccc(Cl)c(C(=O)OC(C)C(=O)NCc3ccco3)c2)c(=O)n(-c2ccccc2)n1C (stereo not given),inactive
16,CCN(CCCNC(=O)c1cc2cc3ccc(OC)cc3nc2s1)c1ccccc1,"inconclusive: 8.91 µM [inhibitor, partial curve, poor fit]"
17,Oc1ccc(C=NNc2nc3ccccc3s2)c(O)c1,"inconclusive: 35.5 µM [inhibitor, partial curve, poor fit]"
18,N/C(=N\OC(=O)c1cccs1)c1cccnc1,inactive
19,Cc1ccc(C)c(C(=O)Nc2cc(C)nn2-c2nc(C)cc(C)n2)c1,"inconclusive: 0.501 µM [inhibitor, partial curve, poor fit]"
20,Cc1cc(C)c(C)c(OCCOCCN2CCN(C)CC2)c1,inactive
21,COc1cc(C2CC(=O)Nc3c2c(=O)nc2c(C)cccn32)cc(OC)c1OC (stereo not given),inactive
22,O=C(NCCOC(=O)c1c(F)cccc1Cl)c1c(F)cccc1Cl,"inconclusive: 14.1 µM [inhibitor, single point]"
23,NC(=O)C1(Nc2ccccc2Cl)CCCC1,inactive
24,CCCc1cc(C(=O)Nc2ccc(CC)cc2)no1,"inconclusive: 25.1 µM [inhibitor, single point]"

row,Structure (SMILES),Potency
1,CC(=O)Nc1ccc(NC(=O)Cc2ccc(S(=O)(=O)N3CCCCC3)cc2)cc1,"inconclusive: 35.5 µM [inhibitor, single point]"
2,Cc1ccc(-c2csc(N/N=C/c3ccco3)n2)cc1,"inconclusive: 29.1 µM [inhibitor, single point]"
3,CCOC(=O)C1=C(NC(=S)NC(=O)c2ccccc2)c2ccccc2CC1(C)C,active: 1.41 µM
4,Oc1ccccc1C=NC1=NN(c2cccc(C(F)(F)F)c2)CC1,inactive
5,CCC1CCCCN1CCCNS(=O)(=O)c1ccc2c(c1)oc(=O)n2C (stereo not given),"inconclusive: 12.6 µM [activator, single point]"
6,CN(Cc1ccccc1)C(NC(=O)c1ccccc1)C(Cl)(Cl)Cl (stereo not given),active: 20.6 µM
7,Cc1cccc(CNC(=O)c2ccc(Cn3c(=O)c4cccn4c4cccnc43)cc2)c1,inactive
8,COc1cc(-c2c(NC(=O)c3ccco3)oc3c(C)cccc3c2=O)cc(OC)c1OC,"inconclusive: 35.5 µM [inhibitor, single point]"
9,O=C(COc1ccc(-c2ccccc2)cc1)NN=C1CCCC1,"inconclusive: 7.08 µM [inhibitor, partial curve, poor fit]"
10,Cc1ccccc1C(=O)NCCOc1ccccc1Cl,"inconclusive: 0.631 µM [inhibitor, full curve, poor fit]"
11,O=C(NCCCN1CCOCC1)c1ccc(N2CCCC2)c([N+](=O)[O-])c1,"inconclusive: 12.6 µM [activator, partial curve, poor fit]"
12,Brc1c(CSc2nc3ccccc3s2)nc2ncccn12,inactive
13,Cc1ccc(C(=O)NNC(=O)C2CC2)cc1Br,"inconclusive: 4.47 µM [activator, full curve, poor fit]"
14,CCCCOCc1cc(CN2CCN(c3cccc(Cl)c3)CC2)c(O)c2ncccc12,"inconclusive: 5.62 µM [inhibitor, full curve]"
15,CCOC(=O)C1=C(O)/C(=C/c2ccc(OCC(=O)O)c(OCC)c2)SC1=Nc1ccccc1,"inconclusive: 35.5 µM [inhibitor, single point]"
16,O=P(O)(Cc1ccccc1)Cc1ccccc1,inactive
17,O=C(C1=NNCC1c1ccc(Cl)cc1)C1CO1 (stereo not given),"inconclusive: 29.1 µM [inhibitor, single point]"
18,COc1ccc(CCNC(=O)CCS(=O)(=O)c2ccc3c(c2)oc(=O)n3C)cc1OC,"inactive and inconclusive: 1.78 µM [activator, full curve]"
19,COc1cc(C(=O)NCC2CCCN2S(=O)(=O)c2cccs2)cc(OC)c1OC (stereo not given),inactive
20,CC(=O)c1cc2c(cc1NC(=O)CN1CCN(c3ccc(F)cc3)CC1)OCO2,"inconclusive: 4.47 µM [activator, full curve, poor fit]"
21,Cc1ccc(CNc2ccc(S(=O)(=O)N3CCOCC3)cc2[N+](=O)[O-])cc1,inactive
22,Cc1nnc(SCC(=O)N2c3ccccc3C(C)(c3ccc(Cl)cc3)CC2(C)C)s1 (stereo not given),active: 10 µM
23,COc1ccc(-n2c(-c3ccco3)nc3c(cnn3-c3ccc(C)cc3)c2=O)cc1,"inconclusive: 2.24 µM [inhibitor, full curve]"
24,Cc1ccc(NCC(=O)N/N=C/c2cccc(Oc3ccccc3)c2)cc1,active: 2.31 µM

row,Structure (SMILES),Potency
1,O=C(NCCCC1CCCC1)C1CCC(=O)N(Cc2cccc(F)c2)C1 (stereo not given),"inconclusive: 35.5 µM [inhibitor, single point]"
2,COC(=O)c1cc(S(=O)(=O)N2c3ccccc3CC2C)cn1C (stereo not given),inactive
3,CCn1c(=O)n(CC)c2cc(N3CCCCC3)c(NC(=O)Nc3cc(Cl)ccc3OC)cc21,"inconclusive: 4.47 µM [inhibitor, full curve]"
4,Cc1cc(C)c(S(=O)(=O)NC2CC2)c(C)c1,"inconclusive: 1.26 µM [inhibitor, single point]"
5,Cc1ccc(NC(=S)N(CCCN2CCCC2)Cc2cccn2Cc2ccc(Cl)cc2)cc1Cl,active: 1.12 µM
6,Cc1ccc(NC(=O)c2cc(S(=O)(=O)NCCC3=CCCCC3)ccc2F)cc1,"inconclusive: 11.2 µM [inhibitor, partial curve, poor fit]"
7,CCCCn1c(N)c(N(Cc2ccccc2OC)C(=O)c2sccc2C)c(=O)[nH]c1=O,inactive
8,CCS(=O)(=O)N1CCc2cc(C(=O)Nc3cc(Cl)ccc3C)ccc21,inactive
9,C=CCN1C(=O)CSc2ccc(C(=O)NCc3ccco3)cc21,inactive
10,O=P1(O)C=C(c2ccccc2)OC(c2ccccc2)=C1,"inconclusive: 11.2 µM [activator, single point]"
11,O=C(NCc1ccccc1)c1ccccc1-c1nc2ccccc2[nH]1,inactive
12,C=C(C)COc1ccc(-c2n[nH]c(C)c2-c2ccc(OC)c(OC)c2)c(O)c1,active: 0.631 µM
13,COC(=O)[C@@]1(Cc2ccc(OC)cc2)[C@H]2c3cc(C(=O)N(C)C)n(CCSCCO)c3C[C@H]2CN1C(=O)c1ccccc1,inactive
14,c1csc(Cc2nc3ccccc3[nH]2)c1,"inconclusive: 4.61 µM [activator, full curve, poor fit]"
15,CC(=O)Oc1ccc(Cl)cc1/C=C/c1cc(OC(C)=O)c2ccccc2n1,"inconclusive: 29.1 µM [inhibitor, single point]"
16,CCC(=C/c1sc2ccc3ccccc3c2[n+]1C)/C=C1\Sc2ccc3ccccc3c2N1C,"inconclusive: 7.08 µM [inhibitor, partial curve, poor fit]"
17,CC(C)Oc1ccc(/C=N/NC(=O)C(CSCc2ccccc2)NC(=O)c2ccc([N+](=O)[O-])cc2)cc1 (stereo not given),"inconclusive: 13 µM [inhibitor, partial curve, poor fit]"
18,Cc1nc2ccc(NC(=O)C3CCN(S(=O)(=O)c4cccs4)CC3)cc2s1,"inconclusive: 20.6 µM [inhibitor, single point]"
19,CCOC(=O)Cc1csc(NC(=O)CSc2nc(C)cc(C)n2)n1,"inconclusive: 2.51 µM [inhibitor, partial curve, poor fit]"
20,Cc1ccsc1/C=N/Nc1nc2ccccc2s1,"inconclusive: 0.316 µM [activator, partial curve, poor fit]"
21,Clc1cccc(N2CCN(c3ncnc4nc[nH]c34)CC2)c1,"inconclusive: 29.1 µM [inhibitor, partial curve, poor fit]"
22,COc1ccc(C(=O)Nc2ccc(S(=O)(=O)N3CCCCC3C)cc2)c(OC)c1OC (stereo not given),"inconclusive: 29.1 µM [inhibitor, single point]"
